Targets (5′ to 3′):
T1: PreQ1 riboswitch RNA pseudoknot, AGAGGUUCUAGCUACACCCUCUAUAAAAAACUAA. From B. subtilis. Hit rate about 0.7% of about 24,000 compounds.
T2: TPP riboswitch RNA three-way junction, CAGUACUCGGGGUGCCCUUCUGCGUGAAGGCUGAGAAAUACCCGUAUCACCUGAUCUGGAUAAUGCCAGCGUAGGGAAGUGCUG. Hit rate about 0.7% of about 24,000 compounds.
T3: SAM-II riboswitch RNA pseudoknot, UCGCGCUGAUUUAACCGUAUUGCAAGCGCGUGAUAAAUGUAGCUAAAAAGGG. Hit rate about 1% of about 21,000 compounds.

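Each compound is printed as two spots on a slide made to bind it covalently, so it has no test concentration; the read-out is fluorescence of the bound, labelled oligonucleotide. For the PreQ1, TPP and SAM-II riboswitches the laboratory earlier reported (doi:10.1038/s41467-019-09493-3) 1 µM RNA, 2 h, and a rule that included a mean Z-score above 3 (spot signal-to-noise against the whole library), a score well above that on a control array, and duplicate spots agreeing (coefficient of variation under 100). The data file gives only the calls; its cut-offs may differ, and compounds hitting several targets are kept. The calls come from the array alone, and fixing a compound to the slide can hide its binding.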 A compound is marked hit if it was called a hit and none if it was screened but was not. The compounds are a random part of those screened. A target missing from an entry has no call listed here. A dash means that no call is listed here.

| SMILES | T1 | T2 | T3 |
|---|---|---|---|
| `CCNC(=O)c1ccc(NC(=O)N[C@H]2CN(C(C)C)C[C@@H]2O)cc1Cl` | none | none | none |
| `CCOc1ccc2nc(NC(=O)CSc3nc(N)n[nH]3)sc2c1` | hit | none | hit |
| `O=C(NCCN1CCc2ccccc21)[C@H]1CNC[C@H](C(=O)N2CCOCC2)C1` | none | none | none |
| `CCOc1ccccc1NC(NC(=O)c1ccccc1)C(=O)c1cccs1` (stereo not given) | none | none | none |
| `CO[C@H]1C[C@@H](O)C12CCN(C(=O)Cc1cccs1)CC2` | none | none | none |
| `Cc1cnc(N)nc1NCc1cc(C(C)(C)C)n[nH]1` | none | none | none |
| `CCOC(=O)Nc1c(Cl)n(C)c(=O)n(C)c1=O` | none | none | none |
| `COc1cc(OC)cc(-c2ccc3ncc4ccc(=O)n(-c5ccc(N6CCNCC6)c(C(F)(F)F)c5)c4c3c2)c1` | none | none | none |
| `CCC1=C(C(=O)OC)C(c2ccc(F)cc2F)C(C#N)=C(N)O1` (stereo not given) | none | none | none |
| `COc1cccc(-c2cnc(NCc3ccccc3Cl)n2C)c1` | none | none | none |
| `Cc1cccc(-n2sc3c(c2=S)-c2ccccc2NC3(C)C)c1` | none | none | none |
| `Cc1[nH]c(N)nc(=O)c1CCCNc1ccc(CCC2(CCl)OCCO2)cc1` | none | none | none |
| `CCOc1ccc(C2C=C(c3ccccc3)Nc3nc(CCCO)nn32)cc1` (stereo not given) | none | none | none |
| `CN(Cc1cnc(N)nc1)Cc1cnn(-c2ccc(F)cc2)c1` | none | none | none |
| `OCc1ccc(CC2CCN(Cc3cccc(F)c3)C2)cc1` (stereo not given) | none | none | none |
| `Cc1ccccc1Nc1nc(C2(C)CC3(CC(C)OC3=O)C(=O)O2)cs1` (stereo not given) | none | none | none |
| `CC(=O)c1cccc(NC2c3ccccc3C(=O)N2c2ccccc2C)c1` (stereo not given) | none | none | none |
| `Cc1ccc(NC(=O)[C@@H]2CNC[C@H](C(=O)NCCc3c[nH]cn3)C2)cn1` | none | none | none |
| `O=C1NCN(CCO)CN1` | none | none | none |
| `CN(C)C(=O)N1C[C@@H]2CC[C@H](C1)N(Cc1ccc(C#CCCO)cc1)C2` | none | none | none |
| `CCOc1ccc(Br)cc1CNCCCSc1nnnn1C` | none | none | - |
| `OCCn1ncc2c1CN(c1ncnc3sccc13)C2` | none | none | none |
| `CCNc1nc(Oc2ccc(O)nn2)nc(N(C)C)n1` | none | none | none |
| `Cc1ccccc1-c1noc(CCC(=O)N2CCCC(CCN)C2)n1` (stereo not given) | hit | none | none |
| `Clc1ccc(-c2nc(NCCCN3CCOCC3)c3ccccc3n2)cc1` | none | none | none |
| `Cc1nc(CN(CCO)Cc2cccs2)c[nH]1` | none | none | none |
| `O=C(O)c1ccccc1-c1c(-c2ccccc2)ncn1CC1CCNCC1` | none | none | none |
| `CCOC(=O)/C(C#N)=C/c1cccc(C)c1` | none | none | none |
| `COc1ccc2c(CNCCc3ccccc3)c(C(=O)O)n(C)c2c1` | none | none | - |
| `Nc1o[nH]c(=O)c1C1CCCCC1` | none | none | none |
| `CC(=O)c1cccc(Nc2nc(-c3ccc(Cl)cc3)cs2)c1` | none | none | none |
| `Cc1cc(NCc2ccc3c(c2)OCO3)ccc1Br` | none | none | none |
| `CCc1c(C)nn(CCNCCC(=O)N2CCCC(C)C2)c1C` (stereo not given) | none | none | none |
| `N#Cc1cc(C#N)c(SCC(=O)Nc2ccccc2Br)nc1N` | none | none | none |
| `NC(=O)c1nc2c([nH]c1=O)CCCC2` | none | none | none |
| `COc1ccccc1-n1cnc2cc(NCc3ccncc3)ccc21` | none | none | none |
| `Cc1cc(NC(C)C)n2nc(C(F)(F)F)c(-c3ccc(Cl)cc3)c2n1` | none | none | - |
| `O=C(Cn1ccc(=O)[nH]c1=O)Nc1ccc(C(=O)O)c(O)c1` | none | none | none |
| `Cc1cc(NS(=O)(=O)c2ccc(Nc3nc(-c4ccccc4)cs3)cc2)no1` | none | none | none |
| `CO[C@H]1[C@H](NC(=O)c2c[nH]c(=O)[nH]2)c2ccccc2C12CCNCC2` | none | none | none |
| `CC(C)[C@H](N)C(=O)OCCOCn1cnc2c(=O)nc(N)[nH]c21` | none | none | none |
| `CCCCSc1nc(N)cc(N2CCC(c3ncncc3C)CC2)n1` | none | none | none |
| `OCCNc1cc(-c2ccc(O)c(Cl)c2)c2cc[nH]c2n1` | none | none | none |
| `CN(CC=Cc1ccccc1)C(=O)c1cn(CC2CCCNC2)nn1` (stereo not given) | none | none | none |
| `COc1ccc(Cc2nnc(N)s2)cc1OC` | none | none | none |
| `Cc1nc(CCN)cc(N2CCN(c3ccc(C#N)cn3)CC2)n1` | none | none | none |
| `CCc1ccccc1Nc1cc(C)nc2ncnn12` | none | none | none |
| `Cc1cc(C)cc(NC(=O)Cn2nnc(C(=O)Nc3cc(C)ccc3C)c2N)c1` | none | none | none |
| `COCCCNc1nc2c(c(=O)n(Cc3ccccc3)c(=O)n2C)n1C` | none | none | none |
| `CCc1cc(C)cc(OCC(O)Cn2c[n+](C)c3ccccc32)c1` (stereo not given) | none | none | none |
| `Cc1ccc(C2(O)CCN(c3nccc(N4CCC(O)C4)n3)CC2)nc1` (stereo not given) | none | none | none |
| `CCN1CC(Nc2nc(-c3ccncc3)nc3c2CNC3)CC1=O` (stereo not given) | none | none | none |
| `CCOC(=O)C1=C(CNCc2ccccc2Cl)NC(=O)NC1c1ccc2c(c1)OCO2` (stereo not given) | none | none | none |
| `CCCCN[C@H]1CS(=O)(=O)C[C@@H]1S(=O)(=O)c1ccc(Cl)cc1` | none | none | - |
| `Cc1cc(Nc2cccc(C(=O)N3CCCCCC3)c2)n2nc(-c3cccnc3)nc2n1` | none | none | - |

Once more, the final 6:

{"smiles": "CCc1cc(C)cc(OCC(O)Cn2c[n+](C)c3ccccc32)c1", "stereo": "stereo not given", "T1": "none", "T2": "none", "T3": "none"}
{"smiles": "Cc1ccc(C2(O)CCN(c3nccc(N4CCC(O)C4)n3)CC2)nc1", "stereo": "stereo not given", "T1": "none", "T2": "none", "T3": "none"}
{"smiles": "CCN1CC(Nc2nc(-c3ccncc3)nc3c2CNC3)CC1=O", "stereo": "stereo not given", "T1": "none", "T2": "none", "T3": "none"}
{"smiles": "CCOC(=O)C1=C(CNCc2ccccc2Cl)NC(=O)NC1c1ccc2c(c1)OCO2", "stereo": "stereo not given", "T1": "none", "T2": "none", "T3": "none"}
{"smiles": "CCCCN[C@H]1CS(=O)(=O)C[C@@H]1S(=O)(=O)c1ccc(Cl)cc1", "T1": "none", "T2": "none"}
{"smiles": "Cc1cc(Nc2cccc(C(=O)N3CCCCCC3)c2)n2nc(-c3cccnc3)nc2n1", "T1": "none", "T2": "none"}

Data from the ROBIN nucleic acid binder screens, doi:10.1002/anie.202211358.